At least one structure is not confirmed: it was looked up by name or label, or the drawing left a doubt.
Test system: Staphylococcus, Streptococcus, Klebsiella and Proteus
Test: Antibacterial activity test (overall result)
Assay type: cell-based
Conditions: conclusion from Table 3

For `C[C@@H](O)[C@H]1C(=O)N2C(C(=O)O)=C(SC3CN(C4=NCCS4)C3)[C@H](C)[C@H]12` [Compound (22), (1R,5S,6S)-2-[(1-(thiazolin-2-yl)azetidin-3-yl)thio]-6-[(R)-1-hydroxyethyl]-1-methyl-carbapen-2-em-3-carboxylic acid], the “Antibacterial activity” value was “strong antibacterial activity especially against Staphylococcus, Streptococcus, Klebsiella and Proteus”.

Source: US5886172A, “Carbapenem-3-carboxylic acid ester derivatives” (Lederle (Japan) Ltd., priority 1995, dated 1999)
